The subject of experiment [1] is MILI (PIWIL2) piRISC loaded with L1MC piRNA (26 nt). Kind of experiment: pre-steady-state target cleavage rate (min^-1); higher = faster piRNA-guided slicing of the target. The following applies: guide: L1MC piRNA 5'p-UAACUAAAUACUAUGCAAGCUGUAGG
A digest of the protocol:
(§1)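 Using HEPES–potassium acetate buffer at 33 °C, 1 nM active affinity-purified piRISC with a single synthetic guide was mixed with 0.1 nM transcribed, DNA-blocked target RNA library for 0–8 or 0–960 min, with or without 500 nM GTSF1 partner protein. Uncleaved targets were sequenced and normalised to depth and to weakly complementary targets, and three trials were pooled with k3 capped at 0.0001 min^-1. A burst-and-steady-state fit gave the pre-steady-state cleavage rate.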

Experiment [2] deals with EfPiwi piRISC loaded with L1MC piRNA (26 nt). Kind of experiment: pre-steady-state target cleavage rate (min^-1); guide: L1MC piRNA 5'p-UAACUAAAUACUAUGCAAGCUGUAGG; MIWI and MILI are mouse PIWI proteins and EfPiwi is from a freshwater sponge; tags in brackets are library labels; higher = faster piRNA-guided slicing of the target. A digest of the protocol: as §1
Where [3] appears, read: auxiliary factor: 500 nM mouse GTSF1.
Setting [4] is: auxiliary factor: none (no GTSF1).
[5] abbreviates: auxiliary factor: 500 nM Ephydatia muelleri Gtsf1.
Where [6] appears, read: auxiliary factor: none (no Gtsf1).

± gives the standard deviation. Only a part is listed here, and it is no random draw. Many of these values have a large error. This is one part of the list.

In the case of UCCUGGAUCAGCUUGCAAAGUAUUUAGAAA, the “pre-steady-state target cleavage rate” value in experiment [1] (setting [3]) was 0.0827 ± 0.015; in experiment [1] (setting [4]), 0.00184 ± 0.0034; in experiment [2] (setting [5]) it was 0.00199 ± 0.0024; in experiment [2] (setting [6]), 0.000912 ± 0.0091.
For UCCUGGAACAGCUUGCUUAGUAUUUAGUUA, in that order: 0.264 ± 0.01, 0.00723 ± 0.0021, 0.0181 ± 0.005 and 0.000809 ± 0.01.
For UCCUGGUACACGCUUGCAUAGUAUUUAGUUA, in that order: 0.167 ± 0.046, 0.0158 ± 0.0071, 0.00613 ± 0.0031 and 0.00165 ± 0.0095.
Take UCCUGGAACAGGUUGCAUAGAAUUUAGUUA: the “pre-steady-state target cleavage rate” value in experiment [1] (setting [3]) was determined as 0.0524 ± 0.011; in experiment [1] (setting [4]) it was 0.0038 ± 0.002; in experiment [2] (setting [5]), 0.00258 ± 0.0014; in experiment [2] (setting [6]), 0.000268 ± 0.033.
For UCCUGGAACAGCUUGGAUAGUAUUUACUUA, in that order: 0.0413 ± 0.012, 0.00198 ± 0.0036, 0.000665 ± 0.0039 and 0.000254 ± 0.026.
Take UCCUGGUACAGCAUUGCAUAGUAUUUAGUUA: the “pre-steady-state target cleavage rate” value in experiment [1] (setting [3]) amounted to 0.257 ± 0.039; in experiment [1] (setting [4]) it was 0.0159 ± 0.0049; in experiment [2] (setting [5]), 0.0107 ± 0.004; in experiment [2] (setting [6]) it was 0.00122 ± 0.011.
With UCCUGGUACAGCUUGCAUAGUAUUUAAUUA, the “pre-steady-state target cleavage rate” value in experiment [1] (setting [3]) stood at 0.0793 ± 0.022; in experiment [1] (setting [4]), 0.00528 ± 0.0035; in experiment [2] (setting [5]) it was 0.00206 ± 0.0058; in experiment [2] (setting [6]), 0.000607 ± 0.032.
For the sequence UCCUGGAACAGGUUGCAUAGUAUUUACUUA, the “pre-steady-state target cleavage rate” value was 0.0532 ± 0.012 in experiment [1] (setting [3]), 0.00203 ± 0.0036 in experiment [1] (setting [4]), 0.00101 ± 0.0036 in experiment [2] (setting [5]) and 0.000421 ± 0.013 in experiment [2] (setting [6]).
On the same counts, the results for UCCUGGUACAGCUUGGUUAGUAUUUAGUAA are 0.159 ± 0.038, 0.01 ± 0.0031, 0.00341 ± 0.004 and 0.000553 ± 0.018.
In the case of UCCUGGAACAGCUUGCAAAGUAUUUAGAUA, the “pre-steady-state target cleavage rate” value in experiment [1] (setting [3]) was found to be 0.085 ± 0.014; in experiment [1] (setting [4]), 0.00298 ± 0.0022; in experiment [2] (setting [5]), 0.0036 ± 0.0024; in experiment [2] (setting [6]), 0.000471 ± 0.014.
Consider UCCUGGAUCUGCUUGCAUUGUAUUUAGUUA, for which the “pre-steady-state target cleavage rate” value was found to be 0.159 ± 0.015 in experiment [1] (setting [3]), 0.00477 ± 0.0023 in experiment [1] (setting [4]), 0.00657 ± 0.003 in experiment [2] (setting [5]) and 0.000589 ± 0.018 in experiment [2] (setting [6]).
As for UCCUGGAUCUGCUUGCAUAGUAUUUACAAA, the “pre-steady-state target cleavage rate” value in experiment [1] (setting [3]) stood at 0.104 ± 0.022; in experiment [1] (setting [4]), 0.00101 ± 0.0055; in experiment [2] (setting [5]), 0.000564 ± 0.0086; in experiment [2] (setting [6]), 0.000392 ± 0.014.
For UCCUGCAUGAGCUUGCAUAGUAUUUAGUAA, in that order: 0.234 ± 0.024, 0.00554 ± 0.0022, 0.0061 ± 0.0025 and 0.000271 ± 0.021.
On the same counts, the results for UCCUGGAUGAGCUUGCAAAGUAAUUAGUUA are 0.0348 ± 0.0091, 0.00244 ± 0.0041, 0.00431 ± 0.0022 and 0.000437 ± 0.019.
For UCCUGGAUGUCGUUGCAUCAGUAUUUAGUUA, in that order: 0.00144 ± 0.0077, 0.000683 ± 0.0082, 0.000213 ± 0.022 and 0.000185 ± 0.038.
Take UCCUCCUACAGCUUGCAUAGGAUUUAGUUA: the “pre-steady-state target cleavage rate” value was 0.0118 ± 0.0044 in experiment [1] (setting [3]), 0.0015 ± 0.0032 in experiment [1] (setting [4]), 0.0113 ± 0.0028 in experiment [2] (setting [5]) and 0.00638 ± 0.0035 in experiment [2] (setting [6]).
Regarding UCCUGGAUGUGCUUGCGUAGUAUUUAGUUA, the “pre-steady-state target cleavage rate” value turned out to be 0.0451 ± 0.013 in experiment [1] (setting [3]), 0.0145 ± 0.0037 in experiment [1] (setting [4]), 0.00248 ± 0.0048 in experiment [2] (setting [5]) and 0.00427 ± 0.0042 in experiment [2] (setting [6]).
On the same counts, the results for UCCUGCUACAGCUUGCAUAGUUUAUAGUUA are 0.0528 ± 0.017, 0.00196 ± 0.003, 0.00312 ± 0.0027 and 0.000984 ± 0.0064.
In the case of UCCUCCUACAGCUAGCAUUGUAUUUAGUUA, the “pre-steady-state target cleavage rate” value in experiment [1] (setting [3]) stood at 0.184 ± 0.013; in experiment [1] (setting [4]), 0.00496 ± 0.0019; in experiment [2] (setting [5]), 0.0127 ± 0.0042; in experiment [2] (setting [6]), 0.000871 ± 0.0072.
On the same counts, the results for UCCUGGAUCUGCUUGCAUAGUAAUUAGUUA are 0.2 ± 0.017, 0.00416 ± 0.0027, 0.0152 ± 0.005 and 0.0241 ± 0.0099.
For UCCUGGUAGAGCUUGCAUAGAAUUUAGUUA, in that order: 0.0311 ± 0.0054, 0.0029 ± 0.0032, 0.00278 ± 0.003 and 0.00193 ± 0.0063.
Take UCCUGGAUGAGCUUGCAUAGUUAAUAGUUA: the “pre-steady-state target cleavage rate” value in experiment [1] (setting [3]) was 0.00524 ± 0.004; in experiment [1] (setting [4]), 0.00242 ± 0.0028; in experiment [2] (setting [5]), 0.00122 ± 0.0049; in experiment [2] (setting [6]) it was 0.000601 ± 0.012.
On the same counts, the results for UCCUGGAUGAGCUUGCAUAGAAUUUAGUUA are 0.0653 ± 0.017, 0.00227 ± 0.0025, 0.00142 ± 0.0033 and 0.000788 ± 0.0093.
On the same counts, the results for UCCUGCUACACCUUGCAUAGUAUUUAGAUA are 0.112 ± 0.032, 0.00163 ± 0.0048, 0.00254 ± 0.0016 and 0.000507 ± 0.013.
On the same counts, the results for UCCUGGAUGUGCUUGGAUAGUAAUUAGUUA are 0.0687 ± 0.014, 0.00472 ± 0.0026, 0.000558 ± 0.0083 and 0.000578 ± 0.015.

The record behind these values is the supplement of paper PMC10338343.
